Measurements from article PMC9948342.
Results are given in words; binding and its absence hold for the method and conditions named. In cells and extracts the contact can be indirect. These calls come from enrichment with a bait or labelling near it, and not all partners need be listed.

Protein sequences, listed by entry. Tags and fused reporters are not part of them.
UniProt P07951: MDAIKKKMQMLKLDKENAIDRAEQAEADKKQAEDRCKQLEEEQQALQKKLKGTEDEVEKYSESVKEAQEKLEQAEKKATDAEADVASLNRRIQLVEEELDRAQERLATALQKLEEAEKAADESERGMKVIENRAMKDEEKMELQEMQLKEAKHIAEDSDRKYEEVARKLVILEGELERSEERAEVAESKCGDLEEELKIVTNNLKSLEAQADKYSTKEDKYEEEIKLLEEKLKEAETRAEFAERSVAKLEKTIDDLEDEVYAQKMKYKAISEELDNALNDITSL
UniProt Q9NR12: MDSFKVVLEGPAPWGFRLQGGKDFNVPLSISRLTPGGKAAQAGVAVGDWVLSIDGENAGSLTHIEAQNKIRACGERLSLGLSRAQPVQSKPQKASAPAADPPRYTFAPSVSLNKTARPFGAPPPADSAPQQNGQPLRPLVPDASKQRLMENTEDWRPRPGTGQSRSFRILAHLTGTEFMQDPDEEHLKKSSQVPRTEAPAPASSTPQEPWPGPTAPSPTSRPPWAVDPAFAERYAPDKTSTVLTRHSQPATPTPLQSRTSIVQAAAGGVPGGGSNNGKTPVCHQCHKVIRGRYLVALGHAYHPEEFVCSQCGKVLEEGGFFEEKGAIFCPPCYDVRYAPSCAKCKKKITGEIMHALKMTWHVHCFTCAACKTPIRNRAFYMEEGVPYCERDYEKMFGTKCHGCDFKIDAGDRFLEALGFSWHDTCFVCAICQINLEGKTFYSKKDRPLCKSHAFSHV

Target: Flag-TPM2 (human) (UniProt P07951)
Assay: affinity purification with mass spectrometry; Flag-TPM2 transfected into HEK293T; whole cell lysate in IP lysis buffer immunoprecipitated with Flag magnetic beads or IgG control beads at 4 °C overnight; eluate analysed by MS

binding: binds
Substance: PDLIM7 (from UniProt Q9NR12 1-457)
